This note sets out measurements from publication PMC7819943, “Rice protein-binding microarrays: a tool to detect cis-acting elements near promoter regions in rice”.

Protein sequences, listed by entry. Tags and fused reporters are not part of them.
UniProt Q0JBA9, entry or part of it: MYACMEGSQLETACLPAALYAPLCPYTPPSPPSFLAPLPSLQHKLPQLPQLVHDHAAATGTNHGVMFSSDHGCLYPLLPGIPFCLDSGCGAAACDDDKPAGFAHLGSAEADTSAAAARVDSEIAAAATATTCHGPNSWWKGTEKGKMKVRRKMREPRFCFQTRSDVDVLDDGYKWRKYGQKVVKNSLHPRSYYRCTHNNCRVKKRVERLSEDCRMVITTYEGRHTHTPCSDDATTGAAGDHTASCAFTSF

The list shows a part of the results.

The target of this assay is OsWRKY34 (Oryza sativa, UniProt Q0JBA9 1-250). Description: protein-binding microarray (RPBM); PBS, 2% BSA, 51.3 ng/ul salmon testes DNA, 50 uM zinc acetate, 200 nM TF, 25 C, 1 h; high values mean tight binding. The conditions noted are these: protein: recombinant; tags: N-terminal polyhistidine and DsRed monomer fusion (pET32a); label: CyDye5-dUTP incorporated in the synthesized complementary strand; 3' TTTTT single-stranded linker to array surface; dsDNA, one strand shown. In a few lines:
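Transcription factors, each fused N-terminally to a polyhistidine tag and DsRed, were expressed in E. coli BL21-CodonPlus and purified on Ni–NTA. A custom Agilent array was made double-stranded by primer extension with Cy5-dUTP and blocked with 2% BSA. It was incubated with 200 nM protein in PBS, 2% BSA, salmon testes DNA and 50 µM zinc acetate at 25 °C for 1 h, then washed. The binding signal is per-feature fluorescence intensity (arbitrary units) read on an Axon 4000B scanner.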
Consider “ACTTTAATTCTTTTCCATCACATCAACCTGTTATACACACCGGAGTCACCTAGTGCAG”, for which the binding signal was 12700 fluorescence intensity (a.u.).

In the case of “GACTTTTTAGCATATGTTTGACCGTTCGTCTTATTCAAAACGGAGTCACCTAGTGCAG”, the binding signal was 10600 fluorescence intensity (a.u.).

In the case of “CCAATCACAAGCAACGCCCACTCGCTACTACTACTCCACTCGGAGTCACCTAGTGCAG”, the binding signal was 9060 fluorescence intensity (a.u.).

As for “CCTCACACACACCTCTCCTTCACCCTAACCTTTTCTTTTTCGGAGTCACCTAGTGCAG”, the binding signal is 8270 fluorescence intensity (a.u.).

In the case of “GATGGGCAGCAGTTCTTCGTCGTCATGTGGCCCGCCCAAACGGAGTCACCTAGTGCAG”, the binding signal is 8530 fluorescence intensity (a.u.).

For “TACCGACTCCTCCAACTACCAAAACCGGTACAAACTATATCGGAGTCACCTAGTGCAG”, the binding signal was 9900 fluorescence intensity (a.u.).

“ATTCTCTGAGATAAGTCGCTTGTTATTCTTATTGGATCTCCGGAGTCACCTAGTGCAG”: the binding signal was 9450 fluorescence intensity (a.u.).

In the case of “ATTTTCATTTTCATTTTCTGTTTTCCTTTCTTTTTTTGGACGGAGTCACCTAGTGCAG”, the binding signal is 9050 fluorescence intensity (a.u.).

As to “TTCACCCTTTTCCGGTCGTCTTCCTCGTCTCGCTCCCCTGCGGAGTCACCTAGTGCAG”, the binding signal is 9810 fluorescence intensity (a.u.).

Turning to “ATCTCATCGATCCTGCTCACCCTTCCTCTCTCTCCTCCTCCGGAGTCACCTAGTGCAG”, the binding signal was 9090 fluorescence intensity (a.u.).

In the case of “TGGCCACGGAGGTGGAGGCGGGGAAGGGCGCCGCGGCGGTCGGAGTCACCTAGTGCAG”, the binding signal is 8160 fluorescence intensity (a.u.).

Consider “GTTGTATAGGTTGGTTTTTTATGTATGACGCCGTTGACTTCGGAGTCACCTAGTGCAG”, for which the binding signal is 17100 fluorescence intensity (a.u.).

As for “CAATTTGACTAGCTTAGCTAGTTTGACCAATCTTCAGCTTCGGAGTCACCTAGTGCAG”, the binding signal is 8770 fluorescence intensity (a.u.).

Regarding “CCTATTTTTAGTATATATATATATCACATCTCGTACTCTGCGGAGTCACCTAGTGCAG”, the binding signal is 8590 fluorescence intensity (a.u.).

Take “GACCGTTTGATTTATTGTCTGAAACCATGTTCCTGAGTCGCGGAGTCACCTAGTGCAG”: the binding signal was 10300 fluorescence intensity (a.u.).

Consider “ACATGGCGTAAAGGTGACAAACAAAATTCTCTCTATTATCCGGAGTCACCTAGTGCAG”, for which the binding signal was 8620 fluorescence intensity (a.u.).

“CCGCGGCGTTTTGTGTGGCCTTCGTCTCGTGTTATCTCTTCGGAGTCACCTAGTGCAG”: the binding signal was 10100 fluorescence intensity (a.u.).

Turning to “CAAGGCATGTTTGTCACGGCTCCAGCTCCAGCTTCACCTACGGAGTCACCTAGTGCAG”, the binding signal is 8530 fluorescence intensity (a.u.).

In the case of “CGTCTACATGTACTTCGAATTTTCCGTTTGAACTGCAACACGGAGTCACCTAGTGCAG”, the binding signal was 8120 fluorescence intensity (a.u.).

As for “TAATGTATGACGTCGTTGACTTTTTGTTAAACGTTTGATCCGGAGTCACCTAGTGCAG”, the binding signal is 15600 fluorescence intensity (a.u.).

On to “CTCCCACGCCTCACACACTGACACACATATGGGCATAAATCGGAGTCACCTAGTGCAG”, for which the binding signal was 8320 fluorescence intensity (a.u.).

In the case of “TTGTACTCGCACTAACTGATCCACAGCGCGCACCGGTCTCCGGAGTCACCTAGTGCAG”, the binding signal was 9180 fluorescence intensity (a.u.).

Take “CCGCACATGTCAGCCTACTAACCCACCTGCCAAATCGCCCCGGAGTCACCTAGTGCAG”: the binding signal was 8590 fluorescence intensity (a.u.).

In the case of “TCGTCCTCGGTCTGTTGACCTCCTCCCAAAGCCCCTTGTCCGGAGTCACCTAGTGCAG”, the binding signal is 8100 fluorescence intensity (a.u.).

On to “CTTTGTTTCTTTCTCATTTCTTCATGTAAATTGTAGTGCTCGGAGTCACCTAGTGCAG”, for which the binding signal is 12700 fluorescence intensity (a.u.).

Turning to “CATTCGTTCAGTTATTGTTTTTTTTTCTTTGATCGGAGACCGGAGTCACCTAGTGCAG”, the binding signal was 8610 fluorescence intensity (a.u.).

For the sequence “GATCACTAGCCTAGTAGCCTAGCTTGCTAACCATCTTTTCCGGAGTCACCTAGTGCAG”, the binding signal is 10000 fluorescence intensity (a.u.).

Consider “AATGTCGCACACTCACTTGCCACTCTCCCTCGCAATCTTCCGGAGTCACCTAGTGCAG”, for which the binding signal is 9770 fluorescence intensity (a.u.).

In the case of “TGGACTATAGTGTCATCTTCCAATATTCCTTATTTTTTAACGGAGTCACCTAGTGCAG”, the binding signal is 8390 fluorescence intensity (a.u.).

As for “TGTAATGCTGCCGTTAGATCTGATAGTGGTGGGGTGGTATCGGAGTCACCTAGTGCAG”, the binding signal is 14600 fluorescence intensity (a.u.).

On to “GACATACAATTCTATTATATTCTTATATTTTTCTTATTTCCGGAGTCACCTAGTGCAG”, for which the binding signal is 9760 fluorescence intensity (a.u.).

In the case of “TTTTTTTAAAATTTGCATGTTTTTTGGTCGTGTAAAATTTCGGAGTCACCTAGTGCAG”, the binding signal is 8290 fluorescence intensity (a.u.).

Consider “GTCTCCTCACTGCTACTGTCAGCCTGATCGAAGAAGTAATCGGAGTCACCTAGTGCAG”, for which the binding signal is 9250 fluorescence intensity (a.u.).

With “TAGGAGGAGAGAGAACGGGAGGAGATGGGGTAGGAAGGGGCGGAGTCACCTAGTGCAG”, the binding signal was 8940 fluorescence intensity (a.u.).

Take “GCTTTCTTGAGTTCCATCTTTTTTCGTGCCTCATCTCACACGGAGTCACCTAGTGCAG”: the binding signal was 8530 fluorescence intensity (a.u.).

With “GGCTGCTTCAGGGGCGTGGGAGAGGTTTGGGGTTGGTTCACGGAGTCACCTAGTGCAG”, the binding signal is 16000 fluorescence intensity (a.u.).

“AACACTTCAGAATCCTTGTTTGTGGTGGGGATGGGACTGTCGGAGTCACCTAGTGCAG”: the binding signal was 14400 fluorescence intensity (a.u.).

“TCAAACTTATCTTATCACTACTACGACCTTCTCATTTAAACGGAGTCACCTAGTGCAG”: the binding signal was 8210 fluorescence intensity (a.u.).

With “CCTGGCTGTCTTCCCCAATTCTCCCTTTTCCTTCCCCAATCGGAGTCACCTAGTGCAG”, the binding signal was 10900 fluorescence intensity (a.u.).

As to “ATGCCCCACTGTCCTCCTTTTCGAAGCCAGCTATGCTCCACGGAGTCACCTAGTGCAG”, the binding signal is 8720 fluorescence intensity (a.u.).

With “ATATTTGACGACGTTGATTTTTTTTAAATATGTTTGACCGCGGAGTCACCTAGTGCAG”, the binding signal is 9090 fluorescence intensity (a.u.).

Regarding “TCTCCTGTACGCACATCAGGCCGACATGAATGCATCTCAACGGAGTCACCTAGTGCAG”, the binding signal was 8380 fluorescence intensity (a.u.).

As to “TGCCATCTTGACCCACATGTCATTGGGTTCTATATGCCATCGGAGTCACCTAGTGCAG”, the binding signal was 8940 fluorescence intensity (a.u.).

Take “ACTACACGGCTTTTATTTTGTCATATATTCTCCTGTATTACGGAGTCACCTAGTGCAG”: the binding signal is 10500 fluorescence intensity (a.u.).

As for “GCTTTTCTTGCTTGCTGCAATGGCCGCCTCCTCCGCGCAGCGGAGTCACCTAGTGCAG”, the binding signal is 8480 fluorescence intensity (a.u.).

As for “TGTCCACTTTGTAAGCCAGGGATAGTCGTACCGCCAAACACGGAGTCACCTAGTGCAG”, the binding signal is 8680 fluorescence intensity (a.u.).

Regarding “CTTTTTACAATTATTTTGCACATTGATTTTTTTTCTGTTTCGGAGTCACCTAGTGCAG”, the binding signal was 11000 fluorescence intensity (a.u.).

As for “CGTTGCTTGCTCTGATATATTTGTTGACTTGCCTCAAAGTCGGAGTCACCTAGTGCAG”, the binding signal was 12900 fluorescence intensity (a.u.).

For the sequence “ATCCCTTCCTCACTTAACTGTGTTTGGGATGAGGGTTGGGCGGAGTCACCTAGTGCAG”, the binding signal is 9080 fluorescence intensity (a.u.).

In the case of “CTTGTCATAGTGTGTTATCTAGGTCCCAAATCACCACAGTCGGAGTCACCTAGTGCAG”, the binding signal is 9250 fluorescence intensity (a.u.).

“TCGGGTCTAACTATCCCCTTTTCGGGTTTTTTTTTTGTTTCGGAGTCACCTAGTGCAG”: the binding signal was 8230 fluorescence intensity (a.u.).

Consider “CTTGGACCCACTTAATATGTTATATGGCTATTTCTAGTCACGGAGTCACCTAGTGCAG”, for which the binding signal is 8220 fluorescence intensity (a.u.).

With “AAGTTCGAATCCCTTCCAACTCATGTTTTCTCACTATCTTCGGAGTCACCTAGTGCAG”, the binding signal is 8300 fluorescence intensity (a.u.).

As to “CCCGCCTCCGATCAAGCTTCTCCGGCTTCCGATTCTCCCTCGGAGTCACCTAGTGCAG”, the binding signal is 10200 fluorescence intensity (a.u.).
